Results as given in patent US20040171021A1.
No constants are given. Whether binding was seen depends on the method and setting. Some binding calls cover weakened binding; strength is not graded here.

Amino acid sequences for entries named in this document (tags omitted). Residues count along the entry.
UniProt P20151, residues 25-261: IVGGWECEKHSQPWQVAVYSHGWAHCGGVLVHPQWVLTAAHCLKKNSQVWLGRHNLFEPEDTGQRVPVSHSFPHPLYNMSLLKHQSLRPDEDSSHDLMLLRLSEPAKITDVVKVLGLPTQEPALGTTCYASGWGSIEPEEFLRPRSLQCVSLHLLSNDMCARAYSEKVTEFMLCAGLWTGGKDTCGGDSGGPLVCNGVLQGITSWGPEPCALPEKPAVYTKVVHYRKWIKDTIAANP

Target: T1, macrophage migration inhibitory factor (MIF) (UniProt P14174)
T1 sequence (looked up): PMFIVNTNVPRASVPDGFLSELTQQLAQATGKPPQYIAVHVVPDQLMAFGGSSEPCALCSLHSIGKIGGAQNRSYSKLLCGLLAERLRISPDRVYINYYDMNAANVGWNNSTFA
Assay: MIF antibody affinity purification of LNCaP lysate; MALDI-TOF and Edman sequencing

- binding: binds
Substance: human glandular kallikrein-2 (hK2) (from UniProt P20151 25-261) (enzyme)
